Test results reported in doi:10.1101/776823.
No constants are given. Whether binding was seen depends on the method and setting. In cells and extracts the contact can be indirect. Some binding calls cover weakened binding; strength is not graded here.

Protein sequences, listed by entry. Tags and fused reporters are not part of them.
UniProt Q08211: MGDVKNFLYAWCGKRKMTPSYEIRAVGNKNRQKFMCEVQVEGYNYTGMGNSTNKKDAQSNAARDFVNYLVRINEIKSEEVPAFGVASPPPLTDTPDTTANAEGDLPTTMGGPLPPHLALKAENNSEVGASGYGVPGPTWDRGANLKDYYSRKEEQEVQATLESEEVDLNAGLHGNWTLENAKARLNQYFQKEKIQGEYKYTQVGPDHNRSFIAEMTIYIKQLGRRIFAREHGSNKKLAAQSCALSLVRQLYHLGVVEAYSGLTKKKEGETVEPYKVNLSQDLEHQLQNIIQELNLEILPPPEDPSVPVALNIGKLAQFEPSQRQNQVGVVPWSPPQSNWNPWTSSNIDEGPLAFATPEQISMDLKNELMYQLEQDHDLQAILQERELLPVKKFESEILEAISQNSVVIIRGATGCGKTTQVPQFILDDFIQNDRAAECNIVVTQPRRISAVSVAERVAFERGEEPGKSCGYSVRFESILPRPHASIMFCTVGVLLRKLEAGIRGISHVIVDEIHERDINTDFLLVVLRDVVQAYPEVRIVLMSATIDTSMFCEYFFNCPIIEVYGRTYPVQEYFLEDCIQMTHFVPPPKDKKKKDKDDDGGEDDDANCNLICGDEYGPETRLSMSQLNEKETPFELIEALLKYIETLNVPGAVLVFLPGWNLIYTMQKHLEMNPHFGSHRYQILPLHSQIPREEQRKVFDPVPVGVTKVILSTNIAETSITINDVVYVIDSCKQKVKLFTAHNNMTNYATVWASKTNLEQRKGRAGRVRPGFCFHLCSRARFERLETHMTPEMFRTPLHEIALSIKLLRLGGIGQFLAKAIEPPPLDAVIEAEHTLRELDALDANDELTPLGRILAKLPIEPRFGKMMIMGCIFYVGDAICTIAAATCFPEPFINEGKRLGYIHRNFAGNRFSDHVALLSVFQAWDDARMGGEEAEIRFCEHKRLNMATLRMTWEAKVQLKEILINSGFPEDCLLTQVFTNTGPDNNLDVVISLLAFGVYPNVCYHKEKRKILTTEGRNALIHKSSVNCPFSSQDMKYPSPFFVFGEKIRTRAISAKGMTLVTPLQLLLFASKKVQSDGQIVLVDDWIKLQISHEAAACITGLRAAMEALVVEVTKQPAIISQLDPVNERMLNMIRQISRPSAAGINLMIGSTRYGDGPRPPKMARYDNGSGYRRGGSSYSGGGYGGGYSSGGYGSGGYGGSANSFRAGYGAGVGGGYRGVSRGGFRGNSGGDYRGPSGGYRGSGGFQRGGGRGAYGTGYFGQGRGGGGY

Target: GFP-DHX9 (UniProt Q08211)
Assay: co-IP

binding: binds
B1: USP42 (enzyme, UniProt Q9H9J4 1-1324)
chain: MTIVDKASESSDPSAYQNQPGSSEAVSPGDMDAGSASWGAVSSLNDVSNHTLSLGPVPGAVVYSSSSVPDKSKPSPQKDQALGDGIAPPQKVLFPSEKICLKWQQTHRVGAGLQNLGNTCFANAALQCLTYTPPLANYMLSHEHSKTCHAEGFCMMCTMQAHITQALSNPGDVIKPMFVINEMRRIARHFRFGNQEDAHEFLQYTVDAMQKACLNGSNKLDRHTQATTLVCQIFGGYLRSRVKCLNCKGVSDTFDPYLDITLEIKAAQSVNKALEQFVKPEQLDGENSYKCSKCKKMVPASKRFTIHRSSNVLTLSLKRFANFTGGKIAKDVKYPEYLDIRPYMSQPNGEPIVYVLYAVLVHTGFNCHAGHYFCYIKASNGLWYQMNDSIVSTSDIRSVLSQQAYVLFYIRSHDVKNGGELTHPTHSPGQSSPRPVISQRVVTNKQAAPGFIGPQLPSHMIKNPPHLNGTGPLKDTPSSSMSSPNGNSSVNRASPVNASASVQNWSVNRSSVIPEHPKKQKITISIHNKLPVRQCQSQPNLHSNSLENPTKPVPSSTITNSAVQSTSNASTMSVSSKVTKPIPRSESCSQPVMNGKSKLNSSVLVPYGAESSEDSDEESKGLGKENGIGTIVSSHSPGQDAEDEEATPHELQEPMTLNGANSADSDSDPKENGLAPDGASCQGQPALHSENPFAKANGLPGKLMPAPLLSLPEDKILETFRLSNKLKGSTDEMSAPGAERGPPEDRDAEPQPGSPAAESLEEPDAAAGLSSTKKAPPPRDPGTPATKEGAWEAMAVAPEEPPPSAGEDIVGDTAPPDLCDPGSLTGDASPLSQDAKGMIAEGPRDSALAEAPEGLSPAPPARSEEPCEQPLLVHPSGDHARDAQDPSQSLGAPEAAERPPAPVLDMAPAGHPEGDAEPSPGERVEDAAAPKAPGPSPAKEKIGSLRKVDRGHYRSRRERSSSGEPARESRSKTEGHRHRRRRTCPRERDRQDRHAPEHHPGHGDRLSPGERRSLGRCSHHHSRHRSGVELDWVRHHYTEGERGWGREKFYPDRPRWDRCRYYHDRYALYAARDWKPFHGGREHERAGLHERPHKDHNRGRRGCEPARERERHRPSSPRAGAPHALAPHPDRFSHDRTALVAGDNCNLSDRFHEHENGKSRKRRHDSVENSDSHVEKKARRSEQKDPLEEPKAKKHKKSKKKKKSKDKHRDRDSRHQQDSDLSAACSDADLHRHKKKKKKKKRHSRKSEDFVKDSELHLPRVTSLETVAQFRRAQGGFPLSGGPPLEGVGPFREKTKHLRMESRDDRCRLFEYGQGKRRYLELGR
